Measurements reported in PubChem BioAssay AID1259327 (Drosophila RNAi Screening Center, 2017).
Screen: 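Baseline ATP after transmembrane-protein gene knock-down with water vehicle only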. System: Drosophila S2R+ cells. Knock-down reagent: long dsRNA against Drosophila genes. Timing: 5 days (water added on day 4, read one day later). Treatment: water added as vehicle, no metal, one day before read-out. Measurement: 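Luciferase ATP signal per well, normalised to plate mean, duplicate average converted to z-score across plates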. Scale: ATP z-score: higher = more total ATP than typical wells; ATP luminescence: higher = more total ATP. Rule for the call: 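Called active when the ATP z-score exceeds 1.5 or falls below -1.5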. Calls: active = hit: ATP up or down; inactive = no clear ATP change.
The whole screen tested about 3,100 reagents; this is a part drawn at random. Over the whole deposit, 378 (12%) are marked active. 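Hits include both directions; z-score sign shows ATP rise or fall; raw luminescence values are not plate-normalised.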 A plus sign joins genes that one reagent is predicted to hit. No sequences are given here. Not given: the amount of reagent.

gene knocked down	amplicon	ATP z-score, duplicate mean	ATP luminescence, replicate 1 (RLU)	ATP luminescence, replicate 2 (RLU)	activity call
CG31445	DRSC14443	0.117	7.33e5	7.03e5	inactive
CG31445	DRSC28642	1.83	1.08e6	1.01e6	active
VAChT + ChAT	DRSC13312	1.04	3.54e5	8.54e5	inactive
PIG-T (Phosphatidylinositol glycan anchor biosynthesis class T)	DRSC17774	0.941	5.38e5	6.58e5	inactive
PIG-T (Phosphatidylinositol glycan anchor biosynthesis class T)	DRSC39821	-0.123	4.75e5	4.66e5	inactive
Tim17b1	DRSC12179	0.00816	9.26e5	8.69e5	inactive
Tim17b1	DRSC39766	-0.13	4.63e5	4.77e5	inactive
Or33b (Odorant receptor 33b)	DRSC03387	1.06	8.88e5	7.90e5	inactive
Osi19 (Osiris 19)	DRSC12569	-0.293	8.76e5	8.40e5	inactive
GABA-B-R1 (metabotropic GABA-B receptor subtype 1)	DRSC22038	0.96	7.76e5	5.44e5	inactive
GABA-B-R1 (metabotropic GABA-B receptor subtype 1)	DRSC39785	-0.94	4.02e5	4.25e5	inactive
mthl7 (methuselah-like 7)	DRSC10852	0.639	9.53e5	1.00e6	inactive
mthl7 (methuselah-like 7)	DRSC39583	-1.83	3.50e5	3.31e5	active
CG13794	DRSC02298	-1.14	6.09e5	6.01e5	inactive
CG13794	DRSC25419	-0.94	8.39e5	9.60e5	inactive
Tsp86D (Tetraspanin 86D)	DRSC15607	-0.663	2.82e5	6.57e5	inactive
CG6836	DRSC10722	-1.62	5.23e5	5.95e5	active
CG6836	DRSC26906	0.765	9.42e5	1.07e6	inactive
Arl6IP1 (ADP-ribosylation factor-like 6 interacting protein 1)	DRSC14231	0.228	3.12e5	7.80e5	inactive
Arl6IP1 (ADP-ribosylation factor-like 6 interacting protein 1)	DRSC39486	-2.43	3.19e5	2.66e5	active
Ostgamma (Oligosaccharide transferase gamma subunit)	DRSC03074		5.32e5	4.39e5	inactive
Ostgamma (Oligosaccharide transferase gamma subunit)	DRSC39487	-0.0772	4.35e5	4.60e5	inactive
gny (garnysstan)	DRSC02810	1.44	5.65e5	5.96e5	inactive
gny (garnysstan)	DRSC39750	-0.723	4.74e5	3.56e5	inactive
CG32669	DRSC18864	-0.823	4.46e5	6.44e5	inactive
Abcd1 (ATP binding cassette subfamily D member 1)	DRSC17157	0.892	8.14e5	7.82e5	inactive
Abcd1 (ATP binding cassette subfamily D member 1)	DRSC39677	0.694	4.97e5	5.28e5	inactive
CG14160	DRSC10161	0.212	9.83e5	8.66e5	inactive
frj (farjavit)	DRSC03250	1.03	5.66e5	5.35e5	inactive
frj (farjavit)	DRSC39648	-0.859	3.89e5	4.25e5	inactive
GluRIIC (Glutamate receptor IIC)	DRSC00642	0.828	4.98e5	5.79e5	inactive
Strn-Mlck (Stretchin-Mlck)	DRSC05032	0.247	7.81e5	7.33e5	inactive
Strn-Mlck (Stretchin-Mlck)	DRSC07471	-0.86	4.72e5	6.12e5	inactive
Strn-Mlck (Stretchin-Mlck)	DRSC37023	0.643	7.11e5	5.55e5	inactive
CG10353	DRSC19354	-1.29	5.07e5	6.88e5	inactive
CG10353	DRSC29888	0.115	6.10e5	5.68e5	inactive
Sec24CD (Secretory 24CD)	DRSC00300	1.3	5.34e5	6.09e5	inactive

Already shown: 5 of the entries above.
gene knocked down	amplicon	ATP z-score, duplicate mean	ATP luminescence, replicate 1 (RLU)	ATP luminescence, replicate 2 (RLU)	activity call
Arl6IP1 (ADP-ribosylation factor-like 6 interacting protein 1)	DRSC39486	-2.43	3.19e5	2.66e5	active
Ostgamma (Oligosaccharide transferase gamma subunit)	DRSC03074		5.32e5	4.39e5	inactive
Ostgamma (Oligosaccharide transferase gamma subunit)	DRSC39487	-0.0772	4.35e5	4.60e5	inactive
gny (garnysstan)	DRSC02810	1.44	5.65e5	5.96e5	inactive
gny (garnysstan)	DRSC39750	-0.723	4.74e5	3.56e5	inactive

The list goes on:
gene knocked down	amplicon	ATP z-score, duplicate mean	ATP luminescence, replicate 1 (RLU)	ATP luminescence, replicate 2 (RLU)	activity call
brv1 (brivido-1)	DRSC11076	1.23	1.14e6	9.81e5	inactive
alien + CG17906	DRSC02641	-1.03	6.57e5	5.77e5	inactive
alien + CG17906	DRSC24008	0.519	9.46e5	8.30e5	inactive
M6	DRSC11869	-0.966	8.20e5	7.21e5	inactive
M6	DRSC39840	-0.854	4.37e5	4.00e5	inactive
Gr22c (Gustatory receptor 22c)	DRSC29715	0.118	8.68e5	8.08e5	inactive
Gr64d + Gr64e	DRSC28375	-1.09	7.94e5	5.99e5	inactive
Gr64d + Gr64e	DRSC39759	-0.856	3.93e5	4.21e5	inactive
Gr64d + Gr64e	DRSC39760	-0.251	4.52e5	4.44e5	inactive
SERCA (Sarco/endoplasmic reticulum Ca(2+)-ATPase)	DRSC04600	0.0116	7.02e5	7.63e5	inactive
SERCA (Sarco/endoplasmic reticulum Ca(2+)-ATPase)	DRSC26195	-0.778	7.54e5	7.53e5	inactive
twz (tiwaz)	DRSC04069	1.46	8.89e5	8.74e5	inactive
twz (tiwaz)	DRSC25832	0.635	9.96e5	8.61e5	inactive
Arms (Ankyrin repeat-rich membrane spanning)	DRSC03856	-0.136	6.44e5	7.37e5	inactive
Arms (Ankyrin repeat-rich membrane spanning)	DRSC04052	1.45	8.18e5	9.56e5	inactive
Or63a (Odorant receptor 63a)	DRSC08681	-1.55	4.78e5	4.80e5	active
PXo (P[[i]]-sensitive XPR1 orthologue)	DRSC09734	0.233	7.68e5	7.44e5	inactive
Smvt (Sodium-dependent multivitamin transporter)	DRSC15426	-1.69	5.08e5	8.96e5	active
Smvt (Sodium-dependent multivitamin transporter)	DRSC39637	-0.0893	5.05e5	4.11e5	inactive
VhaPPA1-2 (Vacuolar H[+] ATPase PPA1 subunit 2)	DRSC16176	0.0311	2.97e5	7.74e5	inactive
VhaPPA1-2 (Vacuolar H[+] ATPase PPA1 subunit 2)	DRSC25591	0.284	8.83e5	8.88e5	inactive
Osi2 (Osiris 2)	DRSC12174	0.335	9.50e5	9.30e5	inactive
Osi2 (Osiris 2)	DRSC28374	-1.3	7.09e5	6.28e5	inactive
Nmdar1 (NMDA receptor 1)	DRSC12071	1.9	6.68e5	9.99e5	active
Nmdar1 (NMDA receptor 1)	DRSC12356	0.86	1.04e6	9.74e5	inactive
Nmdar1 (NMDA receptor 1)	DRSC24657	-0.774	7.63e5	7.45e5	inactive
sev (sevenless)	DRSC20372	1.06	7.19e5	6.99e5	inactive
sev (sevenless)	DRSC36615	1.41	6.22e5	7.77e5	inactive
sev (sevenless)	DRSC36616	-1.6	4.85e5	4.02e5	active
sns (sticks and stones)	DRSC07687	-1.05	5.72e5	4.76e5	inactive
sns (sticks and stones)	DRSC07691	0.376	6.77e5	8.97e5	inactive
